Reference: patent publication US20040091907A1
These are yes or no findings as the source states them, for the method shown. In cells and extracts the contact can be indirect. Some binding calls cover weakened binding; strength is not graded here.

Chains of the proteins cited; added tags and fusions are not shown.
UniProt O96013: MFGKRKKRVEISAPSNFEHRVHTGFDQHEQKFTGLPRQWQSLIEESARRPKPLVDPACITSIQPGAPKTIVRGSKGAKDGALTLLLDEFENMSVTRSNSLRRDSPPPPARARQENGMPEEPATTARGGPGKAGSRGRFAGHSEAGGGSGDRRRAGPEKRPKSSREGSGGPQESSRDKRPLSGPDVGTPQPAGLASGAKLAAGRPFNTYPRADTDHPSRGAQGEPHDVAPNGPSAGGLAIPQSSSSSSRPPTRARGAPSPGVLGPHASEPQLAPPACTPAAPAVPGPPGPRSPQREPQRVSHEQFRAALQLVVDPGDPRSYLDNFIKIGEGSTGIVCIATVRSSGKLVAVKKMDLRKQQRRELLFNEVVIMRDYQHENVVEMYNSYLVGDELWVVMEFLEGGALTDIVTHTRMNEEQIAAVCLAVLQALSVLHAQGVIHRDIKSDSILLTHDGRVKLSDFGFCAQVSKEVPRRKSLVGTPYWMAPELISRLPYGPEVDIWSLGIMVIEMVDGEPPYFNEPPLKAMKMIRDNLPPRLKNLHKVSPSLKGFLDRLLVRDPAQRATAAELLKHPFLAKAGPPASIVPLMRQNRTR

Assays:
[1] = molecular target: T1, endogenous GEF-H1 (human) (UniProt Q92974); assay: co-immunoprecipitation with anti-PAK4 from A549, HCT116 and H1299 lysates, GEF-H1 Western blot
T1 sequence (looked up): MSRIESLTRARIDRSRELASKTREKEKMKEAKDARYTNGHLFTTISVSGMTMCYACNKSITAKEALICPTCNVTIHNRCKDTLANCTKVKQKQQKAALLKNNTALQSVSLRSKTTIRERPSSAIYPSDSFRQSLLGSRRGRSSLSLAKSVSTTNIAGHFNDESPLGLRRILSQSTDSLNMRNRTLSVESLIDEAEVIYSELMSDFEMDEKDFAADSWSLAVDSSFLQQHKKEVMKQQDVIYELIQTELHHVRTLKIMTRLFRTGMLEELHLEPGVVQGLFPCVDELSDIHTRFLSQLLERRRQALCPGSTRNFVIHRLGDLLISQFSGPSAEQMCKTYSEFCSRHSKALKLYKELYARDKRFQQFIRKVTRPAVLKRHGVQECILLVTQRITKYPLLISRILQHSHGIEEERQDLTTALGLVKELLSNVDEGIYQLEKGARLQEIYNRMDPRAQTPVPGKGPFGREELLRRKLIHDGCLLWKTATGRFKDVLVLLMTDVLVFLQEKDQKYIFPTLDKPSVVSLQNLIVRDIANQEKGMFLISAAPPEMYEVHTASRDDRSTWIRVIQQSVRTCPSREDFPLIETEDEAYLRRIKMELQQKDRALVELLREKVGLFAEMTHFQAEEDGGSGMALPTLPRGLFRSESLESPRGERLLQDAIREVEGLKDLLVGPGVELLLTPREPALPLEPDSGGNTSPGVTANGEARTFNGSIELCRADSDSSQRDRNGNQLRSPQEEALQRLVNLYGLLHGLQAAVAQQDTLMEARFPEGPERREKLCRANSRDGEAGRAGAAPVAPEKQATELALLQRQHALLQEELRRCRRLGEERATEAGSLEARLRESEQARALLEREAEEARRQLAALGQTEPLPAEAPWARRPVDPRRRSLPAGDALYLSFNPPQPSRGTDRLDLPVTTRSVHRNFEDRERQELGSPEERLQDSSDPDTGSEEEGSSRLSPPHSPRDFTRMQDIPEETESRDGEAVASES

[2] = molecular target: T1, endogenous GEF-H1 (human); assay: co-immunoprecipitation with anti-PAK4 from human tumour cell lysates, GEF-H1 Western blot
[3] = molecular target: T1, endogenous GEF-H1 (human); assay: co-immunoprecipitation with PAK4 antibody on Protein G beads from A549, HCT116 and H1299 lysates

Measured: binding

endogenous PAK4 (from UniProt O96013 1-591) (enzyme)
binds: all assays above
